This passage reports binding results from doi:10.1101/2024.02.13.579840.

Sequences of proteins named here, by UniProt entry; tags and fusion partners are left off.
UniProt Q9UHY1: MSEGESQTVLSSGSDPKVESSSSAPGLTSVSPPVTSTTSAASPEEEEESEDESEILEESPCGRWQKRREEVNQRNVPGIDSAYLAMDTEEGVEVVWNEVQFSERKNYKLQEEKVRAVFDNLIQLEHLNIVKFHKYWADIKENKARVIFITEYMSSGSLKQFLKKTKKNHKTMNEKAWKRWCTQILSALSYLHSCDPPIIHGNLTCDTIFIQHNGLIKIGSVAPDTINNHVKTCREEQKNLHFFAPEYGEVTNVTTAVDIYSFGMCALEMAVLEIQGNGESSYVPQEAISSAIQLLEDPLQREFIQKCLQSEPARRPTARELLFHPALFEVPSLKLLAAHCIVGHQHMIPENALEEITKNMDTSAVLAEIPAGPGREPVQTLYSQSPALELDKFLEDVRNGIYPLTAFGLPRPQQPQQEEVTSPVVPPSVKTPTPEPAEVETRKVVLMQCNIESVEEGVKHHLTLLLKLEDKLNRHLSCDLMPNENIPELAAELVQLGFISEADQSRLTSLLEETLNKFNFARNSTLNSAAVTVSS
UniProt Q9H4A3: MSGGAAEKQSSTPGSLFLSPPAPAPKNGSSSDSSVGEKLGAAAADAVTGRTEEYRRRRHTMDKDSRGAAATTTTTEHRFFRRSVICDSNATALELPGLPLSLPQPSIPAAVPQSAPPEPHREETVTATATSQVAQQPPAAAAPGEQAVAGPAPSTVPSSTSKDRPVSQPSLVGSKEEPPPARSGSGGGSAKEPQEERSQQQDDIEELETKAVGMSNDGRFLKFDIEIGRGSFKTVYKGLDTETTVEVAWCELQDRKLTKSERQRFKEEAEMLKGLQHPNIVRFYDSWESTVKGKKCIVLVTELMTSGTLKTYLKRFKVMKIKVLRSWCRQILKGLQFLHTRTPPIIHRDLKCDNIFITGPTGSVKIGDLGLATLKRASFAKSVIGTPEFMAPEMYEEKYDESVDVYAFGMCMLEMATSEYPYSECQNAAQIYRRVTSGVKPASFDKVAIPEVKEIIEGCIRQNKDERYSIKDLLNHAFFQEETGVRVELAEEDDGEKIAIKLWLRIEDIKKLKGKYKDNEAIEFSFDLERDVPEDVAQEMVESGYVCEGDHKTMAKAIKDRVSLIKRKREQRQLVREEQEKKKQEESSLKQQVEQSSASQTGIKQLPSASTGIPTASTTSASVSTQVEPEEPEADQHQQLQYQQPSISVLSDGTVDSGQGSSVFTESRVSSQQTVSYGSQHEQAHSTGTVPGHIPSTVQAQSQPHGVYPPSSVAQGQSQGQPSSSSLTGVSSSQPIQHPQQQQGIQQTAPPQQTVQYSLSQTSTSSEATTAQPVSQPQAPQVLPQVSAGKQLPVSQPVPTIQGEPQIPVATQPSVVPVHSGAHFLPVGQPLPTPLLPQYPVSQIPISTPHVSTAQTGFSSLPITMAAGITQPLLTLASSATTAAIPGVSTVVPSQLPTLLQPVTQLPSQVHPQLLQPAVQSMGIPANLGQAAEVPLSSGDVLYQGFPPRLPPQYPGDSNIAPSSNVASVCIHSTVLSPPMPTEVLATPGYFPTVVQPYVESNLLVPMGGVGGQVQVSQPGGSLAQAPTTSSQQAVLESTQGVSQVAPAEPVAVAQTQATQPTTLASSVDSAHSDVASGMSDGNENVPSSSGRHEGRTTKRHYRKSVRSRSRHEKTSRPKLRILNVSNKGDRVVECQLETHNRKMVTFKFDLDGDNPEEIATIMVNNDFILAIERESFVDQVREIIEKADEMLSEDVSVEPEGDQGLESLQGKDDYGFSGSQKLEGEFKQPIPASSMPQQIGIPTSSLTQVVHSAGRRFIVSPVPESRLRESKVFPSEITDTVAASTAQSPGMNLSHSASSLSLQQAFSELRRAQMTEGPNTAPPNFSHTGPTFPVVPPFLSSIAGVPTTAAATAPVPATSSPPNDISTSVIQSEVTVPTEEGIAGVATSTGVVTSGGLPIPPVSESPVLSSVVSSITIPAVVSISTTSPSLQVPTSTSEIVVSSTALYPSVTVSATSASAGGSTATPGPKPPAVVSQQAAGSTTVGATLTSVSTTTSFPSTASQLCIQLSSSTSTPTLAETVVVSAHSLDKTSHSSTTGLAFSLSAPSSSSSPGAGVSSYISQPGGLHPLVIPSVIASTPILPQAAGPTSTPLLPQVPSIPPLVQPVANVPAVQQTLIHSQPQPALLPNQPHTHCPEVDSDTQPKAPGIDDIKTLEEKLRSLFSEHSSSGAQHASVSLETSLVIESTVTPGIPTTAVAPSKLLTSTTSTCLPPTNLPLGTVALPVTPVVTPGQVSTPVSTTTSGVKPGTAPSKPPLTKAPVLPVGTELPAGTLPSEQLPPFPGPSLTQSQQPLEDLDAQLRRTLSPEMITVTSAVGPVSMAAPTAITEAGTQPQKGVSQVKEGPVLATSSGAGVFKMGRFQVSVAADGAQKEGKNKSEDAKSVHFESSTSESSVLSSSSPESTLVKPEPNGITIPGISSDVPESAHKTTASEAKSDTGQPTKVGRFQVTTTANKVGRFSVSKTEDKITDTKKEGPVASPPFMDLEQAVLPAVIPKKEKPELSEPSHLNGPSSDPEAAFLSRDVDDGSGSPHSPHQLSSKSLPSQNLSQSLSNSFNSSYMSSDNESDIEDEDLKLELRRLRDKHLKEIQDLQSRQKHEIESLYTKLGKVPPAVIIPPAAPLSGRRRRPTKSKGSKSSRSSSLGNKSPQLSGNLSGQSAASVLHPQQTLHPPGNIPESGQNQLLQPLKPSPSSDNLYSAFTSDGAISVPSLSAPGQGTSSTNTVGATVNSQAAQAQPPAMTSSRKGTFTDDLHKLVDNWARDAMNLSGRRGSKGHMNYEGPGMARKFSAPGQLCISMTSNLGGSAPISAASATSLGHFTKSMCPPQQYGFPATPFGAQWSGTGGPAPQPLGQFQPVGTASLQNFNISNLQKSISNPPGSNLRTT
UniProt Q6ZN16: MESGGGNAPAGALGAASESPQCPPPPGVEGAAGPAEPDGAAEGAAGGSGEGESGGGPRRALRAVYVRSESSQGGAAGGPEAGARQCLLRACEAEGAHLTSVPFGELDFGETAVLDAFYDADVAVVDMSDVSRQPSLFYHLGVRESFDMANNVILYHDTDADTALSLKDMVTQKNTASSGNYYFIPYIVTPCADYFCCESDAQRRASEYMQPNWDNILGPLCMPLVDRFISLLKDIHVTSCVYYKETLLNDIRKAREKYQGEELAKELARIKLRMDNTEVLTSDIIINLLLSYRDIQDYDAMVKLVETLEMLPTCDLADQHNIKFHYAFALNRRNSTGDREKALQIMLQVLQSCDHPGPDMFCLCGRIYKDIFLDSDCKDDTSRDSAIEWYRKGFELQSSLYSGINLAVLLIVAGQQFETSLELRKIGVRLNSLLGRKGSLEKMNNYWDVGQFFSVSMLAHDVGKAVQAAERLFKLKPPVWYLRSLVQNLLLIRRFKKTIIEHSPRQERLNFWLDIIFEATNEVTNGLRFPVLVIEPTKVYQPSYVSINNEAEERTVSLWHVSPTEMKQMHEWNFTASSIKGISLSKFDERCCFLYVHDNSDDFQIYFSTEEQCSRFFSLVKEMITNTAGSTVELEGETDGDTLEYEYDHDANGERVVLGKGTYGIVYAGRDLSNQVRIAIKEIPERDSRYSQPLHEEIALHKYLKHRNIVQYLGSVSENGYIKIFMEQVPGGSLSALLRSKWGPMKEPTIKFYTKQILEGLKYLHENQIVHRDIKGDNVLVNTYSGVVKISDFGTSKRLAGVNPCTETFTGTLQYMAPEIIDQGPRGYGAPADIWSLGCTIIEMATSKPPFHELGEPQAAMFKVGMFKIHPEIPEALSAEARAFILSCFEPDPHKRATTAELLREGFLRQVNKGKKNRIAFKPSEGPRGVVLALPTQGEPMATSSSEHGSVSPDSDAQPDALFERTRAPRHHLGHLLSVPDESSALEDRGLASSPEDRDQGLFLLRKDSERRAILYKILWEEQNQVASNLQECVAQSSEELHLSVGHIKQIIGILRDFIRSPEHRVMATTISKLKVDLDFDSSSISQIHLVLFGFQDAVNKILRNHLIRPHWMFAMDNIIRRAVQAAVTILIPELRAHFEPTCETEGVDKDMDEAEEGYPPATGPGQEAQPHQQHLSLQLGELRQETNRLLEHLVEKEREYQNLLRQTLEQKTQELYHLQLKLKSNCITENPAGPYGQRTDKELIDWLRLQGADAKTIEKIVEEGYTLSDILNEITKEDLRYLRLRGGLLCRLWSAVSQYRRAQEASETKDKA
UniProt O95747: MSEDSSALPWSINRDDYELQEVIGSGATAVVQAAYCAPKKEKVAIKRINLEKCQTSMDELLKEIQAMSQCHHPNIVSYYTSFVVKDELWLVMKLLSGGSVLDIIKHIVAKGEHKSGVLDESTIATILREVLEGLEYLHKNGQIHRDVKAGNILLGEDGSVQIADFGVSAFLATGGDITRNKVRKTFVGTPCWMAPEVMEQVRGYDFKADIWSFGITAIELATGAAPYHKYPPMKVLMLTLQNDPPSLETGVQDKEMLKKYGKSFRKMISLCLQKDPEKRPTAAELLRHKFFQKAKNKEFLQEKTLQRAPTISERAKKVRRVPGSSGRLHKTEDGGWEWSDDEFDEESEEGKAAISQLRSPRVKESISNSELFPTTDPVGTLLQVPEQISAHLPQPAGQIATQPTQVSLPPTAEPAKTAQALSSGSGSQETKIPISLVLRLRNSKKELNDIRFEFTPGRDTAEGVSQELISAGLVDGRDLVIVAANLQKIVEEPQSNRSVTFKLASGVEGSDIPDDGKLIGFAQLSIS

Results are given in words; binding and its absence hold for the method and conditions named. In cells and extracts the contact can be indirect. These calls come from enrichment with a bait or labelling near it, and not all partners need be listed. A no says only that the protein was not detected with the bait. For part of these data: Where a sequence is shown, tags or fusion partners need not be part of it.

Common to all, as to test: proximity labelling
The target of test [1] is miniTurbo-2xHA endo-tagged NRBP1 (human (endogenous in HAP1)) (UniProt Q9UHY1).
Test [2] concerns the target T1, miniTurbo-2xHA endo-tagged TSC22D2 (human (endogenous in HAP1)) (UniProt O75157).
T1 sequence: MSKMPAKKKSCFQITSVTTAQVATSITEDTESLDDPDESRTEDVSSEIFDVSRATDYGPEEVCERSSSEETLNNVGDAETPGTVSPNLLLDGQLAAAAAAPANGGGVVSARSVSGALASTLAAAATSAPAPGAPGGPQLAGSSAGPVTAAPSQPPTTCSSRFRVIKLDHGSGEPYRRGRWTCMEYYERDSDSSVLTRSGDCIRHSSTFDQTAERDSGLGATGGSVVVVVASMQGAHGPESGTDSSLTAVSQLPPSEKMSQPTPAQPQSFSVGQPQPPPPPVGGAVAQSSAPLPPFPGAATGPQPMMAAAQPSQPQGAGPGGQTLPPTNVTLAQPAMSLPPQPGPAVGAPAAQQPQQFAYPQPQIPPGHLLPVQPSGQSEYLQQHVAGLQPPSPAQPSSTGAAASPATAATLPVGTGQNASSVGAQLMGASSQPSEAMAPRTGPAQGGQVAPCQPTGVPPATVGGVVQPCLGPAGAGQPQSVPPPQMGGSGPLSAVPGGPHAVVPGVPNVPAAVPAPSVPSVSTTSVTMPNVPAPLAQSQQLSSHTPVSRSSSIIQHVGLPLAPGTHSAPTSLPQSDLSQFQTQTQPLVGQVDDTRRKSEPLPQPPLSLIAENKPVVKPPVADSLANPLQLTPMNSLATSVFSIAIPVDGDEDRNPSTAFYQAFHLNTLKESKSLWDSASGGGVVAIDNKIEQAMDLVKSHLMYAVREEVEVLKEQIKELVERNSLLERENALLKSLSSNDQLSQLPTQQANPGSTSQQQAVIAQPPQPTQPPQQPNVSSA

In test [3] the target is miniTurbo-2xHA endo-tagged WNK1 (human (endogenous in HAP1)) (UniProt Q9H4A3).

As for “ASK3(MAP3K15) (from UniProt Q6ZN16 1-1313)”, the binding result in test [1], in test [2] and in test [3] was “no binding” throughout. OXSR1 (from UniProt O95747 1-527): the binding entry in test [1], in test [2] and in test [3] was “binds” in each case.

B1: TSC22D3 (protein, UniProt Q99576 1-134)
chain: MNTEMYQTPMEVAVYQLHNFSISFFSSLLGGDVVSVKLDNSASGASVVAIDNKIEQAMDLVKNHLMYAVREEVEILKEQIRELVEKNSQLERENTLLKTLASPEQLEKFQSCLSPEEPAPESPQVPEAPGGSAV
With B1, the binding entry in test [1] was “binds”.

B2: TSC22D4 (protein, UniProt Q9Y3Q8 1-395)
chain: MSGGKKKSSFQITSVTTDYEGPGSPGASDPPTPQPPTGPPPRLPNGEPSPDPGGKGTPRNGSPPPGAPSSRFRVVKLPHGLGEPYRRGRWTCVDVYERDLEPHSFGGLLEGIRGASGGAGGRSLDSRLELASLGLGAPTPPSGLSQGPTSWLRPPPTSPGPQARSFTGGLGQLVVPSKAKAEKPPLSASSPQQRPPEPETGESAGTSRAATPLPSLRVEAEAGGSGARTPPLSRRKAVDMRLRMELGAPEEMGQVPPLDSRPSSPALYFTHDASLVHKSPDPFGAVAAQKFSLAHSMLAISGHLDSDDDSGSGSLVGIDNKIEQAMDLVKSHLMFAVREEVEVLKEQIRELAERNAALEQENGLLRALASPEQLAQLPSSGVPRLGPPAPNGPSV
Turning to B2, in test [1], the binding entry is listed as “binds”.

B3: TSC22D1 (protein, UniProt Q15714 1-1073)
chain: MHQPPESTAAAAAAADISARKMAHPAMFPRRGSGSGSASALNAAGTGVGSNATSSEDFPPPSLLQPPPPAASSTSGPQPPPPQSLNLLSQAQLQAQPLAPGGTQMKKKSGFQITSVTPAQISASISSNNSIAEDTESYDDLDESHTEDLSSSEILDVSLSRATDLGEPERSSSEETLNNFQEAETPGAVSPNQPHLPQPHLPHLPQQNVVINGNAHPHHLHHHHQIHHGHHLQHGHHHPSHVAVASASITGGPPSSPVSRKLSTTGSSDSITPVAPTSAVSSSGSPASVMTNMRAPSTTGGIGINSVTGTSTVNNVNITAVGSFNPNVTSSMLGNVNISTSNIPSAAGVSVGPGVTSGVNVNILSGMGNGTISSSAAVSSVPNAAAGMTGGSVSSQQQQPTVNTSRFRVVKLDSSSEPFKKGRWTCTEFYEKENAVPATEGVLINKVVETVKQNPIEVTSERESTSGSSVSSSVSTLSHYTESVGSGEMGAPTVVVQQQQQQQQQQQQQPALQGVTLQQMDFGSTGPQSIPAVSIPQSISQSQISQVQLQSQELSYQQKQGLQPVPLQATMSAATGIQPSPVNVVGVTSALGQQPSISSLAQPQLPYSQAAPPVQTPLPGAPPPQQLQYGQQQPMVSTQMAPGHVKSVTQNPASEYVQQQPILQTAMSSGQPSSAGVGAGTTVIPVAQPQGIQLPVQPTAVPAQPAGASVQPVGQAPAAVSAVPTGSQIANIGQQANIPTAVQQPSTQVPPSVIQQGAPPSSQVVPPAQTGIIHQGVQTSAPSLPQQLVIASQSSLLTVPPQPQGVEPVAQGIVSQQLPAVSSLPSASSISVTSQVSSTGPSGMPSAPTNLVPPQNIAQTPATQNGNLVQSVSQPPLIATNTNLPLAQQIPLSSTQFSAQSLAQAIGSQIEDARRAAEPSLVGLPQTISGDSGGMSAVSDGSSSSLAASASLFPLKVLPLTTPLVDGEDESSSGASVVAIDNKIEQAMDLVKSHLMYAVREEVEVLKEQIKELIEKNSQLEQENNLLKTLASPEQLAQFQAQLQTGSPPATTQPQGTTQPPAQPASQGSGPTA
For B3, the binding entry in test [1] is recorded as “binds”.
